These are yes or no findings as the source states them, for the method shown. Binding seen in cells or lysates may run through a third protein. A yes stands for co-enrichment or nearness to the bait. Other partners may have been found.
T1: CLN7 (human (endogenous in SH-SY5Y)) (UniProt Q8NHS3)
T1 sequence: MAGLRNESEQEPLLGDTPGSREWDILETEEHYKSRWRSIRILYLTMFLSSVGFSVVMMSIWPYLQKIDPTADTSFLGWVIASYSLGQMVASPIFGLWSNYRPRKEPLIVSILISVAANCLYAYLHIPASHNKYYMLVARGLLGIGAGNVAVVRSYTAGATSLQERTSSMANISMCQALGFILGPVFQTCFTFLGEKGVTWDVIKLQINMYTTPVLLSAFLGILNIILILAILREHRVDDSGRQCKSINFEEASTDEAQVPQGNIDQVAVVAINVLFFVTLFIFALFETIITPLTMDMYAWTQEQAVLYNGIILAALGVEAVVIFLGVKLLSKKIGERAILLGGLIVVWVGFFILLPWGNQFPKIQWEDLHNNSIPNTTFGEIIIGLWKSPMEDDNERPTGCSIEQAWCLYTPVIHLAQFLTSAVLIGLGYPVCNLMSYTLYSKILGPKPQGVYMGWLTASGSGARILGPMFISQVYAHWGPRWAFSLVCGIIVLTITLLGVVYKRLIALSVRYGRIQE


Molecular target: T1, CLN7 (human (endogenous in SH-SY5Y))
Assay: affinity purification with mass spectrometry; endogenous CLN7 immunoprecipitated from 2.5 mg SH-SY5Y lysate with a polyclonal anti-CLN7 antibody raised against L9 (351-421aa, Proteintech) on G-sepharose beads; IgG as non-specific binding control; 4 independent replicates; cells under steady state culture conditions

Binder | binding
TSC1 (protein, UniProt Q92574 1-1164) MAQQANVGELLAMLDSPMLGVRDDVTAVFKENLNSDRGPMLVNTLVDYYLETSSQPALHILTTLQEPHDKHLLDRINEYVGKAATRLSILSLLGHVIRLQPSWKHKLSQAPLLPSLLKCLKMDTDVVVLTTGVLVLITMLPMIPQSGKQHLLDFFDIFGRLSSWCLKKPGHVAEVYLVHLHASVYALFHRLYGMYPCNFVSFLRSHYSMKENLETFEEVVKPMMEHVRIHPELVTGSKDHELDPRRWKRLETHDVVIECAKISLDPTEASYEDGYSVSHQISARFPHRSADVTTSPYADTQNSYGCATSTPYSTSRLMLLNMPGQLPQTLSSPSTRLITEPPQATLWSPSMVCGMTTPPTSPGNVPPDLSHPYSKVFGTTAGGKGTPLGTPATSPPPAPLCHSDDYVHISLPQATVTPPRKEERMDSARPCLHRQHHLLNDRGSEEPPGSKGSVTLSDLPGFLGDLASEEDSIEKDKEEAAISRELSEITTAEAEPVVPRGGFDSPFYRDSLPGSQRKTHSAASSSQGASVNPEPLHSSLDKLGPDTPKQAFTPIDLPCGSADESPAGDRECQTSLETSIFTPSPCKIPPPTRVGFGSGQPPPYDHLFEVALPKTAHHFVIRKTEELLKKAKGNTEEDGVPSTSPMEVLDRLIQQGADAHSKELNKLPLPSKSVDWTHFGGSPPSDEIRTLRDQLLLLHNQLLYERFKRQQHALRNRRLLRKVIKAAALEEHNAAMKDQLKLQEKDIQMWKVSLQKEQARYNQLQEQRDTMVTKLHSQIRQLQHDREEFYNQSQELQTKLEDCRNMIAELRIELKKANNKVCHTELLLSQVSQKLSNSESVQQQMEFLNRQLLVLGEVNELYLEQLQNKHSDTTKEVEMMKAAYRKELEKNRSHVLQQTQRLDTSQKRILELESHLAKKDHLLLEQKKYLEDVKLQARGQLQAAESRYEAQKRITQVFELEILDLYGRLEKDGLLKKLEEEKAEAAEAAEERLDCCNDGCSDSMVGHNEEASGHNGETKTPRPSSARGSSGSRGGGGSSSSSSELSTPEKPPHQRAGPFSSRWETTMGEASASIPTTVGSLPSSKSFLGMKARELFRNKSESQCDEDGMTSSLSESLKTELGKDLGVEAKIPLNLDGPHPSPPTPDSVGQLHIMDYNETHHEHS | binds
TSR1 (protein, UniProt Q2NL82 1-804) MAAHRPGPLKQQNKAHKGGRHRGRGSAQRDGKGRLALKTLSKKVRKELSRVDQRHRASQLRKQKKEAVLAEKRQLGGKDGPPHQVLVVPLHSRISLPEAMQLLQDRDTGTVHLNELGNTQNFMLLCPRLKHRWFFTSARPGDLHVVLDMAKVADTILFLLDPLEGWDSTGDYCLSCLFAQGLPTYTLAVQGISGLPLKKQIDTRKKLSKAVEKRFPHDKLLLLDTQQEAGMLLRQLANQKQQHLAFRDRRAYLFAHAVDFVPSEENNLVGTLKISGYVRGQTLNVNRLLHIVGYGDFQMKQIDAPGDPFPLNPRGIKPQKDPDMAMEICATDAVDDMEEGLKVLMKADPGRQESLQAEVIPDPMEGEQTWPTEEELSEAKDFLKESSKVVKKVPKGTSSYQAEWILDGGSQSGGEGDEYEYDDMEHEDFMEEESQDESSEEEEEYETMTIGESVHDDLYDKKVDEEAEAKMLEKYKQERLEEMFPDEVDTPRDVAARIRFQKYRGLKSFRTSPWDPKENLPQDYARIFQFQNFTNTRKSIFKEVEEKEVEGAEVGWYVTLHVSEVPVSVVECFRQGTPLIAFSLLPHEQKMSVLNMVVRRDPGNTEPVKAKEELIFHCGFRRFRASPLFSQHTAADKHKLQRFLTADMALVATVYAPITFPPASVLLFKQKSNGMHSLIATGHLMSVDPDRMVIKRVVLSGHPFKIFTKMAVVRYMFFNREDVLWFKPVELRTKWGRRGHIKEPLGTHGHMKCSFDGKLKSQDTVLMNLYKRVFPKWTYDPYVPEPVPWLKSEISSTVPQGGME | binds
CAMK4 (protein, UniProt Q16566 1-473) MLKVTVPSCSASSCSSVTASAAPGTASLVPDYWIDGSNRDALSDFFEVESELGRGATSIVYRCKQKGTQKPYALKVLKKTVDKKIVRTEIGVLLRLSHPNIIKLKEIFETPTEISLVLELVTGGELFDRIVEKGYYSERDAADAVKQILEAVAYLHENGIVHRDLKPENLLYATPAPDAPLKIADFGLSKIVEHQVLMKTVCGTPGYCAPEILRGCAYGPEVDMWSVGIITYILLCGFEPFYDERGDQFMFRRILNCEYYFISPWWDEVSLNAKDLVRKLIVLDPKKRLTTFQALQHPWVTGKAANFVHMDTAQKKLQEFNARRKLKAAVKAVVASSRLGSASSSHGSIQESHKASRDPSPIQDGNEDMKAIPEGEKIQGDGAQAAVKGAQAELMKVQALEKVKGADINAEEAPKMVPKAVEDGIKVADLELEEGLAEEKLKTVEEAAAPREGQGSSAVGFEVPQQDVILPEY | binds
TBL3 (protein, UniProt Q12788 1-808) MAETAAGVGRFKTNYAVERKIEPFYKGGKAQLDQTGQHLFCVCGTRVNILEVASGAVLRSLEQEDQEDITAFDLSPDNEVLVTASRALLLAQWAWQEGSVTRLWKAIHTAPVATMAFDPTSTLLATGGCDGAVRVWDIVRHYGTHHFRGSPGVVHLVAFHPDPTRLLLFSSATDAAIRVWSLQDRSCLAVLTAHYSAVTSLAFSADGHTMLSSGRDKICIIWDLQSCQATRTVPVFESVEAAVLLPEEPVSQLGVKSPGLYFLTAGDQGTLRVWEAASGQCVYTQAQPPGPGQELTHCTLAHTAGVVLTATADHNLLLYEARSLRLQKQFAGYSEEVLDVRFLGPEDSHVVVASNSPCLKVFELQTSACQILHGHTDIVLALDVFRKGWLFASCAKDQSVRIWRMNKAGQVMCVAQGSGHTHSVGTVCCSRLKESFLVTGSQDCTVKLWPLPKALLSKNTAPDNGPILLQAQTTQRCHDKDINSVAIAPNDKLLATGSQDRTAKLWALPQCQLLGVFSGHRRGLWCVQFSPMDQVLATASADGTIKLWALQDFSCLKTFEGHDASVLKVAFVSRGTQLLSSGSDGLVKLWTIKNNECVRTLDAHEDKVWGLHCSRLDDHALTGASDSRVILWKDVTEAEQAEEQARQEEQVVRQQELDNLLHEKRYLRALGLAISLDRPHTVLTVIQAIRRDPEACEKLEATMLRLRRDQKEALLRFCVTWNTNSRHCHEAQAVLGVLLRREAPEELLAYEGVRAALEALLPYTERHFQRLSRTLQAAAFLDFLWHNMKLPVPAAAPTPWETHKGALP | binds
TOP3B (protein, UniProt O95985 1-862) MKTVLMVAEKPSLAQSIAKILSRGSLSSHKGLNGACSVHEYTGTFAGQPVRFKMTSVCGHVMTLDFLGKYNKWDKVDPAELFSQAPTEKKEANPKLNMVKFLQVEGRGCDYIVLWLDCDKEGENICFEVLDAVLPVMNKAHGGEKTVFRARFSSITDTDICNAMACLGEPDHNEALSVDARQELDLRIGCAFTRFQTKYFQGKYGDLDSSLISFGPCQTPTLGFCVERHDKIQSFKPETYWVLQAKVNTDKDRSLLLDWDRVRVFDREIAQMFLNMTKLEKEAQVEATSRKEKAKQRPLALNTVEMLRVASSSLGMGPQHAMQTAERLYTQGYISYPRTETTHYPENFDLKGSLRQQANHPYWADTVKRLLAEGINRPRKGHDAGDHPPITPMKSATEAELGGDAWRLYEYITRHFIATVSHDCKYLQSTISFRIGPELFTCSGKTVLSPGFTEVMPWQSVPLEESLPTCQRGDAFPVGEVKMLEKQTNPPDYLTEAELITLMEKHGIGTDASIPVHINNICQRNYVTVESGRRLKPTNLGIVLVHGYYKIDAELVLPTIRSAVEKQLNLIAQGKADYRQVLGHTLDVFKRKFHYFVDSIAGMDELMEVSFSPLAATGKPLSRCGKCHRFMKYIQAKPSRLHCSHCDETYTLPQNGTIKLYKELRCPLDDFELVLWSSGSRGKSYPLCPYCYNHPPFRDMKKGMGCNECTHPSCQHSLSMLGIGQCVECESGVLVLDPTSGPKWKVACNKCNVVAHCFENAHRVRVSADTCSVCEAALLDVDFNKAKSPLPGDETQHMGCVFCDPVFQELVELKHAASCHPMHRGGPGRRQGRGRGRARRPPGKPNPRRPKDKMSALAAYFV | binds

Other lines, results leading:

binding | Binder
binds | UTP18 (protein, UniProt Q9Y5J1 1-556) MPPERRRRMKLDRRTGAKPKRKPGMRPDWKAGAGPGGPPQKPAPSSQRKPPARPSAAAAAIAVAAAEEERRLRQRNRLRLEEDKPAVERCLEELVFGDVENDEDALLRRLRGPRVQEHEDSGDSEVENEAKGNFPPQKKPVWVDEEDEDEEMVDMMNNRFRKDMMKNASESKLSKDNLKKRLKEEFQHAMGGVPAWAETTKRKTSSDDESEEDEDDLLQRTGNFISTSTSLPRGILKMKNCQHANAERPTVARISSVQFHPGAQIVMVAGLDNAVSLFQVDGKTNPKIQSIYLERFPIFKACFSANGEEVLATSTHSKVLYVYDMLAGKLIPVHQVRGLKEKIVRSFEVSPDGSFLLINGIAGYLHLLAMKTKELIGSMKINGRVAASTFSSDSKKVYASSGDGEVYVWDVNSRKCLNRFVDEGSLYGLSIATSRNGQYVACGSNCGVVNIYNQDSCLQETNPKPIKAIMNLVTGVTSLTFNPTTEILAIASEKMKEAVRLVHLPSCTVFSNFPVIKNKNISHVHTMDFSPRSGYFALGNEKGKALMYRLHHYSDF
binds | USP39 (protein, UniProt Q53GS9 1-565) MSGRSKRESRGSTRGKRESESRGSSGRVKRERDREREPEAASSRGSPVRVKREFEPASAREAPASVVPFVRVKREREVDEDSEPEREVRAKNGRVDSEDRRSRHCPYLDTINRSVLDFDFEKLCSISLSHINAYACLVCGKYFQGRGLKSHAYIHSVQFSHHVFLNLHTLKFYCLPDNYEIIDSSLEDITYVLKPTFTKQQIANLDKQAKLSRAYDGTTYLPGIVGLNNIKANDYANAVLQALSNVPPLRNYFLEEDNYKNIKRPPGDIMFLLVQRFGELMRKLWNPRNFKAHVSPHEMLQAVVLCSKKTFQITKQGDGVDFLSWFLNALHSALGGTKKKKKTIVTDVFQGSMRIFTKKLPHPDLPAEEKEQLLHNDEYQETMVESTFMYLTLDLPTAPLYKDEKEQLIIPQVPLFNILAKFNGITEKEYKTYKENFLKRFQLTKLPPYLIFCIKRFTKNNFFVEKNPTIVNFPITNVDLREYLSEEVQAVHKNTTYDLIANIVHDGKPSEGSYRIHVLHHGTGKWYELQDLQVTDILPQMITLSEAYIQIWKRRDNDETNQQGA

— publication PMC12579238
